This passage reports IC50 results from US7935724B2, “Thiophene and benzothiophene hydroxamic acid derivatives” (Merck HDAC Research, LLC, priority 2003, dated 2011).

By UniProt entry, the sequences of proteins in these tests, tags left out.
UniProt Q13547, whole entry: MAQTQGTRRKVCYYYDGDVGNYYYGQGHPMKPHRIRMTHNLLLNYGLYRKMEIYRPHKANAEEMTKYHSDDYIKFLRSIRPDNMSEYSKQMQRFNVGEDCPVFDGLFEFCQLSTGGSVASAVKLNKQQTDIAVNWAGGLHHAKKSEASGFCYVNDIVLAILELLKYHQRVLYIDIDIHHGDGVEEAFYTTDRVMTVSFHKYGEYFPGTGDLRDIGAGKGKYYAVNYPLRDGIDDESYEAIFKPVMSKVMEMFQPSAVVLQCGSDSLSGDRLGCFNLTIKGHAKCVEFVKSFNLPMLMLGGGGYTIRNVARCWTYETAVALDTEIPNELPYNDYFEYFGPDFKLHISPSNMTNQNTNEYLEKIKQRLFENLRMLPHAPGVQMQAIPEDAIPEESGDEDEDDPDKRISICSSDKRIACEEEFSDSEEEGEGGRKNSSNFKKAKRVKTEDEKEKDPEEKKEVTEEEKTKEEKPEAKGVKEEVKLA

The target in this test is histone deacetylase, subtype 1 (HDAC1) (Homo sapiens, UniProt Q13547). Put plainly: HDAC1-Flag assay (in vitro deacetylation assay). As to conditions: read-out: HDAC Inhibition; Table 2, thiophene backbone; concentration for 50% inhibition of deacetylation; substrate at Km; unit inferred, text gives nm.

The match of structure and compound is tentative.

In the case of `O=C(/C=C/c1ccc(C(=O)NO)s1)Nc1cccc(OCc2ccccc2)c1`, the IC50 stood at 792 nM.
